Measured values taken from article PMC10786878.
These are yes or no findings as the source states them, for the method shown. Binding seen in cells or lysates may run through a third protein. These calls come from enrichment with a bait or labelling near it, and not all partners need be listed.

The chains behind the UniProt entries cited, without tags or fusion partners. Where a name states a change or a piece, a line headed by the entry shows the natural chain unless it says otherwise. Residues count along the entry.
UniProt P05305: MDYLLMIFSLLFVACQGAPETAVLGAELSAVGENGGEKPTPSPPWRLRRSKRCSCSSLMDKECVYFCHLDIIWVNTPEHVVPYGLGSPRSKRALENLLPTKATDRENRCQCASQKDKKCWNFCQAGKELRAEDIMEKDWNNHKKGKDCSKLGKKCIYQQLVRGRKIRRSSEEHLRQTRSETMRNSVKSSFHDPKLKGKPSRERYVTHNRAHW
UniProt P25101, residues 21-427: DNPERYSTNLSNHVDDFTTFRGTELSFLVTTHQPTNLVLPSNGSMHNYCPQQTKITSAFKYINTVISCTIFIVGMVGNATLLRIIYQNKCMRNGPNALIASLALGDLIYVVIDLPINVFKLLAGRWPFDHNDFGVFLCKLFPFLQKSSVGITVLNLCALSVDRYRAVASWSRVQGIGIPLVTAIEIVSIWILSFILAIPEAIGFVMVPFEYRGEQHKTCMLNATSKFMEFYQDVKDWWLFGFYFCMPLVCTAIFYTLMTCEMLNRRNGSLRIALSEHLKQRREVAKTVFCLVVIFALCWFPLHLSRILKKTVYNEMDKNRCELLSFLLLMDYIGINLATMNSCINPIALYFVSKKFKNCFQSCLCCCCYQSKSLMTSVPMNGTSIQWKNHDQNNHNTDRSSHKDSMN

B1: PALLD (protein, UniProt Q8WX93 1-1383)
chain: MSGTSSHESFYDSLSDMQEESKNTDFFPGLSAFLSQEEINKSLDLARRAIADSETEDFDSEKEISQIFSTSPASLCEHPSHKETKLGEHASRRPQDNRSTPVQPLAEKQTKSISSPVSKRKPAMSPLLTRPSYIRSLRKAEKRGAKTPSTNVKPKTPHQRKGGPQSQLCDKAANLIEELTSIFKAAKPRNRSPNGESSSPDSGYLSPKNQPSALLSASASQSPMEDQGEMEREVKSPGARHCYQDNQDLAVPHNRKSHPQPHSALHFPAAPRFIQKLRSQEVAEGSRVYLECRVTGNPTPRVRWFCEGKELHNTPDIQIHCEGGDLHTLIIAEAFEDDTGRYTCLATNPSGSDTTSAEVFIEGASSTDSDSESLAFKSRAGAMPQAQKKTTSVSLTIGSSSPKTGVTTAVIQPLSVPVQQVHSPTSYLCRPDGTTTAYFPPVFTKELQNTAVAEGQVVVLECRVRGAPPLQVQWFRQGSEIQDSPDFRILQKKPRSTAEPEEICTLVIAETFPEDAGIFTCSARNDYGSATSTAQLVVTSANTENCSYESMGESNNDHFQHFPPPPPILETSSLELASKKPSEIQQVNNPELGLSRAALQMQFNAAERETNGVHPSRGVNGLINGKANSNKSLPTPAVLLSPTKEPPPLLAKPKLDPLKLQQLQNQIRLEQEAGARQPPPAPRSAPPSPPFPPPPAFPELAACTPPASPEPMSALASRSAPAMQSSGSFNYARPKQFIAAQNLGPASGHGTPASSPSSSSLPSPMSPTPRQFGRAPVPPFAQPFGAEPEAPWGSSSPSPPPPPPPVFSPTAAFPVPDVFPLPPPPPPLPSPGQASHCSSPATRFGHSQTPAAFLSALLPSQPPPAAVNALGLPKGVTPAGFPKKASRTARIASDEEIQGTKDAVIQDLERKLRFKEDLLNNGQPRLTYEERMARRLLGADSATVFNIQEPEEETANQEYKVSSCEQRLISEIEYRLERSPVDESGDEVQYGDVPVENGMAPFFEMKLKHYKIFEGMPVTFTCRVAGNPKPKIYWFKDGKQISPKSDHYTIQRDLDGTCSLHTTASTLDDDGNYTIMAANPQGRISCTGRLMVQAVNQRGRSPRSPSGHPHVRRPRSRSRDSGDENEPIQERFFRPHFLQAPGDLTVQEGKLCRMDCKVSGLPTPDLSWQLDGKPVRPDSAHKMLVRENGVHSLIIEPVTSRDAGIYTCIATNRAGQNSFSLELVVAAKEAHKPPVFIEKLQNTGVADGYPVRLECRVLGVPPPQIFWKKENESLTHSTDRVSMHQDNHGYICLLIQGATKEDAGWYTVSAKNEAGIVSCTARLDVYTQWHQQSQSTKPKKVRPSASRYAALSDQGLDIKAAFQPEANPSHLTLNTALVESEDL
B2: SRSF3 (protein, UniProt P84103 1-164)
chain: MHRDSCPLDCKVYVGNLGNNGNKTELERAFGYYGPLRSVWVARNPPGFAFVEFEDPRDAADAVRELDGRTLCGCRVRVELSNGEKRSRNRGPPPSWGRRPRDDYRRRSPPPRRRSPRRRSFSRSRSRSLSRDRRRERSLSRERNHKPSRSFSRSRSRSRSNERK

Columns and labels:
EDN1 (human) [1] = biological target: EDN1 (human) (UniProt P05305); assay: affinity purification with mass spectrometry; IP of the index protein (antibody to the endogenous bait vs isotype IgG, or anti-FLAG M2 beads for the 3xFLAG-tagged bait vs mock transfection) from HCASMC (SMC) lysate, overnight at 4 °C; iTRAQ or TMT LC-MS/MS; interactor: log2 FC >0 and FDR ≤0.1
[2] = biological target: EDNRA (human (endogenous in HCASMC)) (UniProt P25101); assay: as above
EDN1 (human) [3] = biological target: EDN1 (human) (UniProt P05305); assay: affinity purification with mass spectrometry; IP of the index protein from HAEC or HCASMC lysate; the sentence does not tell in which of the two cell types the interactor was found; interactor: log2 FC >0 and FDR ≤0.1

Row | Binder | binding (EDN1 (human) [1]) | binding [2] | binding (EDN1 (human) [3])
1 | B1 | binds | binds | 
2 | B2 |  |  | binds
